Laboratory results: the supplement of paper PMC12067093, “Discovery and optimisation of a covalent ligand for TRIM25 and its application to targeted protein ubiquitination” (Chemical Science, 2025)
Some of the results follow.

Amino acid sequences for entries named in this document (tags omitted). A change or cut given only in a name is not applied to a line headed by its entry.
UniProt Q9NRW3: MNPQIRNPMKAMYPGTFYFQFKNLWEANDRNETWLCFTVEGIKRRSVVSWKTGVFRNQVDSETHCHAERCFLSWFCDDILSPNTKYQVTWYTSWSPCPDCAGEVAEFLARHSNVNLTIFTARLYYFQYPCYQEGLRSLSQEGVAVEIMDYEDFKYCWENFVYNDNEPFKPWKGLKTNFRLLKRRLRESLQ
UniProt Q86XL3: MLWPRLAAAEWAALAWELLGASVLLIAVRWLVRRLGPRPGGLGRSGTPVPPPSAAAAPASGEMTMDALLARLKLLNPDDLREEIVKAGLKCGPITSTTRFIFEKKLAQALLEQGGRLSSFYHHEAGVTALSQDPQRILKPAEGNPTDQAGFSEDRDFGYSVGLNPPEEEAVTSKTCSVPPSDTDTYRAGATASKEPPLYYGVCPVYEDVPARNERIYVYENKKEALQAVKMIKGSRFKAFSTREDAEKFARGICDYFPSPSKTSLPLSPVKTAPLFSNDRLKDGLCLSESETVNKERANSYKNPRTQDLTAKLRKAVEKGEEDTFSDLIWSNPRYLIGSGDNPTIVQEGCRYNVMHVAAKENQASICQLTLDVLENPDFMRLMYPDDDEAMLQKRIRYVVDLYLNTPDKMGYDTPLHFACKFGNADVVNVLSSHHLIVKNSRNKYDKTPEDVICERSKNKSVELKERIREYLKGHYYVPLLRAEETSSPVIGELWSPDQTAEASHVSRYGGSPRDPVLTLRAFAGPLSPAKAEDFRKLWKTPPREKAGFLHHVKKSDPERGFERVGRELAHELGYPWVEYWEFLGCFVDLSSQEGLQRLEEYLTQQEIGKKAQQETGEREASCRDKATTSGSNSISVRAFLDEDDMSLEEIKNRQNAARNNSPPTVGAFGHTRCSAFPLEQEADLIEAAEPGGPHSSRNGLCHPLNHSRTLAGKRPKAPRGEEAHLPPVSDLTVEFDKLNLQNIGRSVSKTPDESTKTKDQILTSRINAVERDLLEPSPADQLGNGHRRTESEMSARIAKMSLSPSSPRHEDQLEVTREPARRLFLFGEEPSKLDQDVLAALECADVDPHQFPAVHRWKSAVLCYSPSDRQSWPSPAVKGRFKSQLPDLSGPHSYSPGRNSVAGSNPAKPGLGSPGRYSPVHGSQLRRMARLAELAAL
UniProt Q8N8A2: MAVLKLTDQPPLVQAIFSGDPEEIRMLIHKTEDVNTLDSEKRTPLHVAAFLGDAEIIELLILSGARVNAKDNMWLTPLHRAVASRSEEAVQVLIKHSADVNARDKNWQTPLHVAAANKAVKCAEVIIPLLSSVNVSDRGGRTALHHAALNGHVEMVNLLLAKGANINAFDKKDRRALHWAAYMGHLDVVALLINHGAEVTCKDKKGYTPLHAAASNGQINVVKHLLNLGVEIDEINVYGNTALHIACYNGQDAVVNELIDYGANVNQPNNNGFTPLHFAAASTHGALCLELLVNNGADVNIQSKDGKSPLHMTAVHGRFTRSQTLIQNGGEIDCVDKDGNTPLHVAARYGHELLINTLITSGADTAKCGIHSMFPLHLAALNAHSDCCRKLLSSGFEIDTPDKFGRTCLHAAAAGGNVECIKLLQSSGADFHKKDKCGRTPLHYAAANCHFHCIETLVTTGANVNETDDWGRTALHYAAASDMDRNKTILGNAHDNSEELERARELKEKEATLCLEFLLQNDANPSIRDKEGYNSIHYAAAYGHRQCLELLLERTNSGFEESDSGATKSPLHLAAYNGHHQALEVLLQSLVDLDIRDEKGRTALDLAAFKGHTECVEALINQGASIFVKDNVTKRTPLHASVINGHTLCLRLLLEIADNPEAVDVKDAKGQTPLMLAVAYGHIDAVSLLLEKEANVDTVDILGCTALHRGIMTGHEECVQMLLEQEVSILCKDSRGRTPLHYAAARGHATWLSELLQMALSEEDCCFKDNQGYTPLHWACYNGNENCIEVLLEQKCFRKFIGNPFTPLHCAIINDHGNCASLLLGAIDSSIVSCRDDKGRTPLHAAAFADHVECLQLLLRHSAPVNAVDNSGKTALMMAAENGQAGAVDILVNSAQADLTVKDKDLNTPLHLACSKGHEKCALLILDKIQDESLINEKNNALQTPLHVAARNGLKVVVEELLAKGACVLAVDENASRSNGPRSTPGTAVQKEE
UniProt O14617: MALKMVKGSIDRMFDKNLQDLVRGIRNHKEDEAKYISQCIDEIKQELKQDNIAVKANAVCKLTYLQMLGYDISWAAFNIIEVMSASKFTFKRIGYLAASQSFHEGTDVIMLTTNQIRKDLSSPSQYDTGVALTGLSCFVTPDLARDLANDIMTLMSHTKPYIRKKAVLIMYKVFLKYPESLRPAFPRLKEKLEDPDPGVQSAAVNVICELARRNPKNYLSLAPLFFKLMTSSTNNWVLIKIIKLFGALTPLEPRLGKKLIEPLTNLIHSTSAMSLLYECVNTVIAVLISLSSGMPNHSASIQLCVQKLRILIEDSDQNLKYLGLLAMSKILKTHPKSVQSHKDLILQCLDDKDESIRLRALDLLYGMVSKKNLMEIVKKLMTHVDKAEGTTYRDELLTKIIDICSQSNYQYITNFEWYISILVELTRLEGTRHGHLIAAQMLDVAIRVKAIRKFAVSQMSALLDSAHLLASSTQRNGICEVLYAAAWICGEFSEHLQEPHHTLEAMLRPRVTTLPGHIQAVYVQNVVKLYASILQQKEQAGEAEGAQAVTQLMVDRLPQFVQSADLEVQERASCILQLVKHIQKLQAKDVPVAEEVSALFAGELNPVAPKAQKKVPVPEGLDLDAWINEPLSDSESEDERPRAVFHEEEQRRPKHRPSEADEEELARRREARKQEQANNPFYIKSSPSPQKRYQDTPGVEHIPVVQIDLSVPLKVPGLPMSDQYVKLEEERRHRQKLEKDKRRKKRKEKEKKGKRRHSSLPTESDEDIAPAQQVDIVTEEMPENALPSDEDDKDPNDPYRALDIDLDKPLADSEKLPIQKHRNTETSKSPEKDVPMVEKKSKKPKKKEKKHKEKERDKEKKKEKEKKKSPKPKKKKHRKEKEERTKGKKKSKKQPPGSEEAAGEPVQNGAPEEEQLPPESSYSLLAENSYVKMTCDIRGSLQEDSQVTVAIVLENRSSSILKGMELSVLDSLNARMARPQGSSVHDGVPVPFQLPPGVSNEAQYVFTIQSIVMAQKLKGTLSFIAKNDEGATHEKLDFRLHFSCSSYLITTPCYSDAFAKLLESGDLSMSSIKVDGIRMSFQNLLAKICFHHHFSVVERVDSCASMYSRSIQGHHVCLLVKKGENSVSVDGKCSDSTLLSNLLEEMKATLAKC
UniProt Q6NXT1: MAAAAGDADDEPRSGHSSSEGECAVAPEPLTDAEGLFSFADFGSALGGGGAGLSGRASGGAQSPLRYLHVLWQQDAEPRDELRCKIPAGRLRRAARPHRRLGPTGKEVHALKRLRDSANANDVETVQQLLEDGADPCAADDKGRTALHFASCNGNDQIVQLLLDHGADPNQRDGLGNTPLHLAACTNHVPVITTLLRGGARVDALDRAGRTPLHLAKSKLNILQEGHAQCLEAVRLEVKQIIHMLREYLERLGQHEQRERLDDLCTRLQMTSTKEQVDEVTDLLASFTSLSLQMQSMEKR
UniProt O14727: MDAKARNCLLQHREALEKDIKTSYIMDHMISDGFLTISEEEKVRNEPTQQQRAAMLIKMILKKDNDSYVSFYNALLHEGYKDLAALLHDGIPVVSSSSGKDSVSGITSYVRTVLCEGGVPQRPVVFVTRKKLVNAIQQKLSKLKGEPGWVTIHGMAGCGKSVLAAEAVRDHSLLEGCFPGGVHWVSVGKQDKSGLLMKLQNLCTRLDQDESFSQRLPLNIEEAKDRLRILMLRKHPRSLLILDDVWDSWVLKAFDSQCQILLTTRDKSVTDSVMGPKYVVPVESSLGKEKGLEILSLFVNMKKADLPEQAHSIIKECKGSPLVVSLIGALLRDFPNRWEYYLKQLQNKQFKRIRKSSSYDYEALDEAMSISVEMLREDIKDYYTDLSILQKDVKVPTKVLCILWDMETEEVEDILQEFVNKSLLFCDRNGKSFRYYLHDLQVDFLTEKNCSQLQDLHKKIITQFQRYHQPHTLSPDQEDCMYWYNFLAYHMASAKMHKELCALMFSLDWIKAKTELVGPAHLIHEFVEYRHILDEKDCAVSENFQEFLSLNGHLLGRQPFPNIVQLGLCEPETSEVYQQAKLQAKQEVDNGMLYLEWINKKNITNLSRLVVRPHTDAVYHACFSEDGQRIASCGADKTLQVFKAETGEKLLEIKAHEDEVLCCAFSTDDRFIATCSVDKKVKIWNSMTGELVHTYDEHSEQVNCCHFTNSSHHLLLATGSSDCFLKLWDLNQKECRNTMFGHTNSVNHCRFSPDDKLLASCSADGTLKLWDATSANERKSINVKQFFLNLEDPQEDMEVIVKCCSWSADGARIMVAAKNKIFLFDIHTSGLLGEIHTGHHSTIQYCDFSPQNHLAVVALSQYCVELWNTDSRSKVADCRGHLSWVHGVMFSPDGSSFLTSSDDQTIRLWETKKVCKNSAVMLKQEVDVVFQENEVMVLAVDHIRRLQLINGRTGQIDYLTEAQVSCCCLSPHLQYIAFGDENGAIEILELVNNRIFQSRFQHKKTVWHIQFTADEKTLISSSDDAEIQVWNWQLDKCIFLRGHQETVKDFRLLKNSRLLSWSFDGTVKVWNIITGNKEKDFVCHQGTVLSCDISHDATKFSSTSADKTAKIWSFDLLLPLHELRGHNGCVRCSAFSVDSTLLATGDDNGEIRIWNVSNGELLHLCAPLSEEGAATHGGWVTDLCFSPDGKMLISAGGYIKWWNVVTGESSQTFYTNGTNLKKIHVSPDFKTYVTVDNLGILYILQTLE
UniProt Q06481, whole entry, looked up: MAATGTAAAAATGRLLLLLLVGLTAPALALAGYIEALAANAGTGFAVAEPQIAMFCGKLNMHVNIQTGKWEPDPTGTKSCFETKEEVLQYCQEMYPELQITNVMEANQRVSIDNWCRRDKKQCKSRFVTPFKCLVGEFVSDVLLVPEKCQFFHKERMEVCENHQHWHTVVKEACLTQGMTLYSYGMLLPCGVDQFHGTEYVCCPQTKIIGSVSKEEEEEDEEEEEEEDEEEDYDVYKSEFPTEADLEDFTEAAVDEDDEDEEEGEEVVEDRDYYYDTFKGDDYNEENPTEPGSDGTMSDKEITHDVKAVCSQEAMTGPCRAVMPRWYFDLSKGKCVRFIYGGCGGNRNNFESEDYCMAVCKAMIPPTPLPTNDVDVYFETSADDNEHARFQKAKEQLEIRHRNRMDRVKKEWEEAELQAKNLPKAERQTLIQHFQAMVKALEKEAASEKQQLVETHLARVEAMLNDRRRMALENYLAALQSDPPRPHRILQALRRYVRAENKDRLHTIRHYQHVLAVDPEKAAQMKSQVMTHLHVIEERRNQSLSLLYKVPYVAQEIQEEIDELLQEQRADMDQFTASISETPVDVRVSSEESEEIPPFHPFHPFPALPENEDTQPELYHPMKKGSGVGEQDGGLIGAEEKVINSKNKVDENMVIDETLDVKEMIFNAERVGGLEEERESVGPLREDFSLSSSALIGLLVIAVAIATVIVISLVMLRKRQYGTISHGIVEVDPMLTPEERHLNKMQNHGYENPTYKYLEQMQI
UniProt Q4KMQ2: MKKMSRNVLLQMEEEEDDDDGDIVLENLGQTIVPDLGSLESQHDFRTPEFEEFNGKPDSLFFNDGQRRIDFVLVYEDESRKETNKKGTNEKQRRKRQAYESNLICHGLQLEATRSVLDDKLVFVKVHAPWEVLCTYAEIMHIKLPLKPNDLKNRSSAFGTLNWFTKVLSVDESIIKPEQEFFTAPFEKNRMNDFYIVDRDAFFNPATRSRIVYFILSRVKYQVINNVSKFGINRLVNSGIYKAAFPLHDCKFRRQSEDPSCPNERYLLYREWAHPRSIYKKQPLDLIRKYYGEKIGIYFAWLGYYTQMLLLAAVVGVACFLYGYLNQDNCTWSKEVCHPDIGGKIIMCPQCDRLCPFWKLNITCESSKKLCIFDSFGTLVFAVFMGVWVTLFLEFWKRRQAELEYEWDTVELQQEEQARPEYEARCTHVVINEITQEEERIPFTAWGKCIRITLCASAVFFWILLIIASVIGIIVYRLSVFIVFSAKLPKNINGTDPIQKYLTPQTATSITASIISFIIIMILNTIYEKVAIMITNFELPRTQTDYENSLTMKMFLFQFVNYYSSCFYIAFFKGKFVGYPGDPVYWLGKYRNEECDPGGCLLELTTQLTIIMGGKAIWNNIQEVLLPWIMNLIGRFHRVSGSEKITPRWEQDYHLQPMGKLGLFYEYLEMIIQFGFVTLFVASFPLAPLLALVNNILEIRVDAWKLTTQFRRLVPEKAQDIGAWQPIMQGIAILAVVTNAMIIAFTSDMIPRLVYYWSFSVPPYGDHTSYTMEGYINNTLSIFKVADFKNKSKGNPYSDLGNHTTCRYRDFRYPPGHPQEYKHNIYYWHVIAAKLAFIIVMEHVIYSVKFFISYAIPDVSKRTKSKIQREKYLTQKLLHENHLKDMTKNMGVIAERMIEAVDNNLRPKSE

Compound: Cc1cc(ccc1-c1ccccc1)C(=O)N1CCCN(CC1)C(=O)CCl [compound 10]
Test: probe-labelled cysteine peptide fold change vs DMSO (competition) (log2 fold change); higher = less target engagement (more negative = stronger competition)
Details: THP-1, incubation time: 4 h
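Note: competitive profiling in live THP-1 cells: cysteine peptides tagged with an iodoacetamide desthiobiotin (IA-DTB) probe, intensity after compound treatment relative to DMSO-treated cells.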

Target | probe-labelled cysteine peptide fold change (10 µM) | probe-labelled cysteine peptide fold change (50 µM)
ANKRD46_Q86W74_85_FGADLLATDYQGNTALHLCGHVDTIQFLVSNGLK (UniProt Q86W74) | 0.281 | 0.317
APOBEC3C_Q9NRW3_65_NQVDSETHCHAER (UniProt Q9NRW3) | 0.0644 | -0.16
ANKLE2_Q86XL3_454_TPEDVICER (UniProt Q86XL3) | -0.0836 | -0.0782
ANKLE2_Q86XL3_844_LDQDVLAALECADVDPHQFPAVHR (UniProt Q86XL3) | -0.0526 | 0.328
ANLN_Q9NQW6_353_EICLQSQSK (UniProt Q9NQW6) | -0.243 | -0.271
ANKRD44_Q8N8A2_547_QCLELLLER (UniProt Q8N8A2) | 0.177 | -0.299
AP4B1_Q9Y6B7_534_ILCSPK (UniProt Q9Y6B7) | -0.0169 | 0.287
AP3D1_O14617_1117_SIQGHHVCLLVK (UniProt O14617) | 0.03 | -0.103
APOBEC3G_Q9HC16_221_GRHETYLCYEVER (UniProt Q9HC16) | 0.0238 | -0.0407
ANXA4_P09525_108_GAGTDEGCLIEILASR (UniProt P09525) | 0.0406 | 0.0244
AP3D1_O14617_1103_VDSCASMYSR (UniProt O14617) | -0.132 | -0.249
ANKRD54_Q6NXT1_185_DGLGNTPLHLAACTNHVPVITTLLR (UniProt Q6NXT1) | 0.177 | 0.0261
APAF1_O14727_675_FIATCSVDKK (UniProt O14727) | 0.277 | 0.113
APOBEC3C_Q9NRW3_70+76_CFLSWFCDDILSPNTK (UniProt Q9NRW3) | -0.0487 | -0.237
APAF1_O14727_203_LQNLCTR (UniProt O14727) | 0.118 | 0.115
APLP2_Q06481_343_FIYGGCGGNR (UniProt Q06481) | -0.427 | -0.392
ANXA2_P07355_262_GDLENAFLNLVQCIQNK (UniProt P07355) | 0.0399 | 0.572

Target | probe-labelled cysteine peptide fold change (10 µM) | probe-labelled cysteine peptide fold change (50 µM)
ANKRD44_Q8N8A2_615_GHTECVEALINQGASIFVK (UniProt Q8N8A2) | -0.0324 | -0.665
ANXA7_P20073_413_TILQCALNRPAFFAER (UniProt P20073) | 0.0808 | 0.0931
ANTXR1_Q9H6X2_257_VLCSFK (UniProt Q9H6X2) | -0.0829 | -0.125
ANKRD17_O75179_210_LTSSVSCALDEAAAALTR (UniProt O75179) | 0.213 | 0.198
ANKRD44_Q8N8A2_420_TCLHAAAAGGNVECIK (UniProt Q8N8A2) | -0.0237 | -0.154
ANO6_Q4KMQ2_426_CTHVVINEITQEEER (UniProt Q4KMQ2) | -0.216 | -0.0038
APOH_P02749_124_CTEEGK (UniProt P02749) | -0.557 | -0.288
AP5S1_Q9NUS5_27_VLYSCVFGAEK (UniProt Q9NUS5) | 0.0416 | -0.0255
ANKIB1_Q9P2G1_640_ETEGGCPDTTFIEDAVHVLLK (UniProt Q9P2G1) | -0.331 | -0.322
APLP2_Q06481_310_AVCSQEAMTGPCR (UniProt Q06481) | -0.469 | -0.85
APAF1_O14727_1083+1091_DFVCHQGTVLSCDISHDATK (UniProt O14727) | -0.0364 | -0.18
AP2M1_Q96CW1_212_SYLSGMPECK (UniProt Q96CW1) | -0.0637 | 0.212
ANKRD28_O15084_898_NTALHLACSK (UniProt O15084) | 0.179 | -0.00843
APMAP_Q9HDC9_149_TRDDEPVCGRPLGIR (UniProt Q9HDC9) | -0.0814 | 0.0194
ANKRD44_Q8N8A2_368_CGIHSMFPLHLAALNAHSDCCR (UniProt Q8N8A2) | 0.15 | 0.229
AP3D1_O14617_39_YISQCIDEIKQELK (UniProt O14617) | 0.167 | -0.0302
